{"source": "PubChem BioAssay AID1259308 (NCATS, 2017)", "purpose": "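Candidate targets for better recombinant protein yield in mammalian cells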 (primary screen)", "system": "human HEK293 embryonic kidney cells stably expressing firefly luciferase (HEK-CMV-Luc2-Hygro)", "reagent": "single siRNA against human genes, 0.8 pmol siRNA per well", "duration": "72 h", "measured": "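Reporter luminescence and viable-cell signal on separate replicate plates, given as percent of non-targeting control and median/MAD z-scores, plus per-cell luciferase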", "scale": "total luciferase, z-score: higher = more reporter protein produced", "rule for the call": "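An siRNA counts as active if its total luciferase robust z-score exceeds 3; genes with two or more such siRNAs out of three were retested with fresh siRNAs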", "meaning of the calls": "active = raised luciferase; inactive = no rise", "note": "Here is a random part of about 59,000 reagents tested. Of all reagents, about 1,510 (2.6%) got an active call. 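Calls use total luciferase alone and ignore viability, so some active siRNAs may act by altering cell number.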 Unmarked entries are inactive. Reagents against one gene are numbered here. Not all columns of the deposit are shown. No sequences are given here."}
{"target":"GJA4 (gap junction protein alpha 4)","reagent":1,"total luciferase, z-score":1.83}
{"target":"GJA4 (gap junction protein alpha 4)","reagent":2,"total luciferase, z-score":-0.0622}
{"target":"GJA4 (gap junction protein alpha 4)","reagent":3,"total luciferase, z-score":2.77}
{"target":"GRIN3B (glutamate ionotropic receptor NMDA type subunit 3B)","reagent":1,"total luciferase, z-score":-0.559}
{"target":"GRIN3B (glutamate ionotropic receptor NMDA type subunit 3B)","reagent":2,"total luciferase, z-score":-1.81}
{"target":"GRIN3B (glutamate ionotropic receptor NMDA type subunit 3B)","reagent":3,"total luciferase, z-score":1.5}
{"target":"DHFR (dihydrofolate reductase)","reagent":1,"total luciferase, z-score":-0.766}
{"target":"DHFR (dihydrofolate reductase)","reagent":2,"total luciferase, z-score":0.772}
{"target":"DHFR (dihydrofolate reductase)","reagent":3,"total luciferase, z-score":-0.608}
{"target":"TMEM164 (transmembrane protein 164)","reagent":1,"total luciferase, z-score":0.263}
{"target":"TMEM164 (transmembrane protein 164)","reagent":2,"total luciferase, z-score":-0.591}
{"target":"TMEM164 (transmembrane protein 164)","reagent":3,"total luciferase, z-score":-0.649}
{"target":"CIBAR2 (CBY1 interacting BAR domain containing 2)","reagent":1,"total luciferase, z-score":0.846}
{"target":"CIBAR2 (CBY1 interacting BAR domain containing 2)","reagent":2,"total luciferase, z-score":0.122}
{"target":"CIBAR2 (CBY1 interacting BAR domain containing 2)","reagent":3,"total luciferase, z-score":1.38}
{"target":"DDR1 (discoidin domain receptor tyrosine kinase 1)","reagent":1,"total luciferase, z-score":-0.335}
{"target":"DDR1 (discoidin domain receptor tyrosine kinase 1)","reagent":2,"total luciferase, z-score":0.0565}
{"target":"DDR1 (discoidin domain receptor tyrosine kinase 1)","reagent":3,"total luciferase, z-score":-0.783}
{"target":"ERP29 (endoplasmic reticulum protein 29)","reagent":1,"total luciferase, z-score":0.0977}
{"target":"ERP29 (endoplasmic reticulum protein 29)","reagent":2,"total luciferase, z-score":-1.99}
{"target":"ERP29 (endoplasmic reticulum protein 29)","reagent":3,"total luciferase, z-score":-0.629}

Copied from above for reference:
{"target":"GJA4 (gap junction protein alpha 4)","reagent":1,"total luciferase, z-score":1.83}
{"target":"GJA4 (gap junction protein alpha 4)","reagent":2,"total luciferase, z-score":-0.0622}
{"target":"GJA4 (gap junction protein alpha 4)","reagent":3,"total luciferase, z-score":2.77}
{"target":"GRIN3B (glutamate ionotropic receptor NMDA type subunit 3B)","reagent":1,"total luciferase, z-score":-0.559}
{"target":"GRIN3B (glutamate ionotropic receptor NMDA type subunit 3B)","reagent":2,"total luciferase, z-score":-1.81}

Continued:
{"target":"EIF1AD","reagent":1,"total luciferase, z-score":"4.31 (active)"}
{"target":"EIF1AD","reagent":2,"total luciferase, z-score":0.243}
{"target":"EIF1AD","reagent":3,"total luciferase, z-score":-1.24}
{"target":"PODN (podocan)","reagent":1,"total luciferase, z-score":"5.11 (active)"}
{"target":"PODN (podocan)","reagent":2,"total luciferase, z-score":-0.776}
{"target":"PODN (podocan)","reagent":3,"total luciferase, z-score":0.711}
{"target":"PLA2G2C (phospholipase A2 group IIC)","reagent":1,"total luciferase, z-score":0.804}
{"target":"PLA2G2C (phospholipase A2 group IIC)","reagent":2,"total luciferase, z-score":-0.482}
{"target":"PLA2G2C (phospholipase A2 group IIC)","reagent":3,"total luciferase, z-score":-0.0119}
{"target":"PGBD5 (piggyBac transposable element derived 5)","reagent":1,"total luciferase, z-score":-1.22}
{"target":"PGBD5 (piggyBac transposable element derived 5)","reagent":2,"total luciferase, z-score":2.02}
{"target":"PGBD5 (piggyBac transposable element derived 5)","reagent":3,"total luciferase, z-score":-0.26}
